Reference: PubChem BioAssay AID504764 (Drosophila RNAi Screening Center, 2011)

Purpose: 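Genome-wide screen for regulators of Notch-driven gene expression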 (primary screen)
Cells: Drosophila Kc167 cells
Reagents: long dsRNA against Drosophila genes
Duration: about 5 days (4 days dsRNA, then 24 h after transfection)
Challenge: transfection of constitutively active membrane-tethered Notch lacking the extracellular domain, read 24 h later
Measurement: 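Light from a Notch-responsive E(spl)m3 luciferase reporter under active Notch, with control-promoter and no-Notch reporter wells to normalise; raw counts from paired wells a and b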
Reading the numbers: induced reporter light, run 1, well a and induced reporter light, run 1, well b: higher = more light from the Notch target reporter with active Notch; control promoter light, run 1, well a and control promoter light, run 1, well b: higher = more light from the viral control promoter (cell number, transfection, viability); uninduced reporter light, run 1, well a: higher = more light from the Notch target reporter without active Notch
Active means: 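Hit if the duplicate-averaged log2 ratio of induced to control-promoter light gives a plate-wise z beyond ±2, or induced to uninduced beyond ±1.8; weak-control or discordant-duplicate wells dropped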
Meaning of the calls: active = modifier hit (raised or lowered Notch signal); inactive = not a hit
The screen tested about 22,000 reagents; shown is an unselected part of those with a known target gene and a result. In the full data, 403 (1.9%) are marked active. 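Unnormalised raw counts per well; ratio z-scores behind the hit calls and whether each hit raises or lowers signal are not deposited.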 Reagents against one gene are numbered here. A plus sign joins genes that one reagent is predicted to hit. The record does not give: the amount of reagent.

target gene	dsRNA no.	induced reporter light, run 1, well a	induced reporter light, run 1, well b	control promoter light, run 1, well a	control promoter light, run 1, well b	uninduced reporter light, run 1, well a	call
mthl8 (GeneID 38013)	1	1.05e5	1.05e5	2.18e5	2.83e5	10220	inactive
mthl8 (GeneID 38013)	2	1.20e5	1.16e5	1.70e5	1.14e5	5660	inactive
Nup93-2 (GeneID 41804)	1	1.04e5	1.00e5	1.15e5	93980	9650	inactive
Fit2 (GeneID 39907)	1	1.35e5	1.29e5	81195	79130	9010	inactive
CG13084 (GeneID 35229)	1	35475	30875	29095	58350	1992	inactive
Cyp4e1 (GeneID 44632)	1	2.06e5	1.88e5	2.36e5	2.13e5	18080	inactive
QIL1 (GeneID 39948)	1	2.11e5	1.73e5	2.69e5	2.10e5	6125	inactive
CG33777 (GeneID 3772311)	1	2.00e5	1.77e5	2.25e5	2.61e5	14638	inactive
Ir20a (GeneID 33126)	1	84895	71410	86635	1.13e5	8990	inactive
Dsor1 (GeneID 31872)	1	2.01e5	2.12e5	3.38e5	2.42e5	14428	inactive
hiw (GeneID 32429)	1	86975	75210	1.02e5	99000	10705	inactive
hiw (GeneID 32429)	2	11150	10945	9930	7325	3015	inactive
CG17364 (GeneID 39543)	1	1.50e5	99185	1.95e5	1.31e5	8185	inactive
CG17364 (GeneID 39543)	2	1.33e5	1.37e5	1.60e5	1.38e5	10310	inactive
CG14545 (GeneID 50075)	1	1.56e5	1.40e5	2.00e5	1.69e5	11895	inactive
Vm32E (GeneID 34558)	1	97150	1.59e5	55815	73895	13815	inactive
Vdup1 (GeneID 38023)	1	1.49e5	1.63e5	1.95e5	2.45e5	9070	inactive
CG18577 (GeneID 41337)	1	90795	75020	80230	65065	4630	inactive
bab1 (GeneID 38116)	1	1.62e5	1.64e5	1.97e5	2.08e5	7885	inactive
bab1 (GeneID 38116)	2	1.57e5	1.51e5	2.14e5	2.34e5	8810	inactive
bab1 (GeneID 38116)	3						inactive
CG3625 (GeneID 33198)	1	1.01e5	1.00e5	1.65e5	1.80e5	8480	inactive
CG3625 (GeneID 33198)	2	2.03e5	2.29e5	1.64e5	1.90e5	22020	inactive
CG3097 (GeneID 31503)	1	41920	40450	76600	62540	3335	inactive
CG34030 (GeneID 3885636)	1	1.57e5	1.62e5	1.93e5	2.17e5	11380	inactive
rictor (GeneID 32919)	1	1.27e5	1.09e5	1.33e5	1.44e5	14775	inactive
ND-ASHI (GeneID 31604)	1	1.49e5	1.67e5	2.35e5	2.00e5	8742	inactive
Wnt5 (GeneID 32838)	1	84445	88215	1.01e5	84165	10990	inactive
Mon1 (GeneID 33689)	1	1.71e5	1.54e5	1.31e5	1.17e5	7710	inactive
CG18754 (GeneID 59145)	1	1.84e5	1.94e5	2.06e5	2.08e5	15585	inactive
MFS9 (GeneID 42426)	1	2.03e5	2.14e5	2.43e5	2.78e5	16628	inactive
lncRNA:CR40629 (GeneID 10178881)	1	3.37e5	2.67e5	3.92e5	3.87e5	20415	inactive
GstE11 (GeneID 37128)	1	55055	48325	71220	67045	4025	active
cnc (GeneID 42743)	1	1.72e5	1.77e5	2.06e5	2.05e5	13455	inactive
cnc (GeneID 42743)	2	45920	41225	2.90e5	3.49e5	4725	active
cnc (GeneID 42743)	3	2.10e5	1.40e5	2.79e5	2.68e5	16092	inactive
cnc (GeneID 42743)	4	1.62e5	1.67e5	2.25e5	2.07e5	12345	inactive
Tmlh (GeneID 42421)	1	1.46e5	1.43e5	1.71e5	1.61e5	10595	inactive
CG14406 (GeneID 32421)	1	82335	92540	1.07e5	76265	12115	inactive
Srp14 (GeneID 42436)	1	1.92e5	1.82e5	2.10e5	1.94e5	11592	inactive
CG11927 (GeneID 33687)	1	1.95e5	1.69e5	1.87e5	1.81e5	18130	inactive
Syx4 (GeneID 31269)	1	97105	1.01e5	1.65e5	2.22e5	7755	inactive
CG14423 (GeneID 31287)	1	1.36e5	1.12e5	2.37e5	1.86e5	9435	inactive
Pfk (GeneID 36060)	1	1.05e5	1.12e5	1.01e5	84115	11855	inactive
Rim2 (GeneID 33350)	1	1.19e5	1.14e5	1.44e5	1.58e5	8730	inactive
Rim2 (GeneID 33350)	2	1.13e5	1.52e5	1.27e5	1.30e5	10685	inactive
SdhA (GeneID 37228)	1	1.03e5	1.01e5	2.15e5	2.04e5	9170	inactive
Sodh2 (GeneID 41313)	1	63845	76695	83560	79645	4835	inactive
CG2104 (GeneID 40702)	1	1.57e5	1.65e5	1.37e5	1.25e5	8890	inactive
Hibch (GeneID 41869)	1	1.55e5	1.44e5	97395	81110	9345	inactive
CG17806 (GeneID 42142)	1	2.08e5	2.49e5	2.51e5	3.55e5	17850	inactive
Or35a (GeneID 34918)	1	98050	1.24e5	1.31e5	1.48e5	9855	inactive
Ir56b (GeneID 37250)	1	1.55e5	1.06e5	1.31e5	1.27e5	11060	inactive
CG32284 (GeneID 317956)	1	2.44e5	2.06e5	2.08e5	1.96e5	16765	inactive
CG44433 (GeneID 37150)	1	86005	63015	93435	79805	6905	inactive
CG44433 (GeneID 37150)	2	46365	48040	50745	60445	6175	inactive
Spn28Da (GeneID 34082)	1	1.82e5	1.73e5	1.15e5	1.59e5	22775	inactive
CG34445 (GeneID 5740761)	1						inactive
CG30109 + CG30108	1	90755	1.09e5	1.21e5	1.21e5	8685	inactive
iav (GeneID 31621)	1	83820	82800	1.69e5	1.41e5	8992	inactive
Atg4b (GeneID 41868)	1	2.04e5	2.02e5	1.46e5	1.22e5	9570	inactive
CG40053 (retired record) (GeneID 3355092)	1	1.90e5	1.90e5	2.76e5	3.18e5	17630	inactive
CG12783 (GeneID 42019)	1	3.04e5	2.73e5	2.88e5	2.82e5	20638	inactive
Vti1b (GeneID 42215)	1	1.75e5	2.03e5	2.26e5	2.13e5	19270	inactive
Vti1b (GeneID 42215)	2	1.62e5	1.50e5	2.27e5	2.05e5	13142	inactive

Looked up above.
Entry for CG34445 (GeneID 5740761) in “call”: inactive
Entry for Pfk (GeneID 36060) under “induced reporter light, run 1, well b”: 1.12e5
cnc (GeneID 42743) #1, induced reporter light, run 1, well b = 1.77e5
